Assay results taken from PubChem BioAssay AID256 (DTP/NCI, 2004).
The list shows only some results of the screen, not a fair sample: it is rich in T/C values a quarter to a half above the control, in often repeated tests (any T/C) and in doses without a T/C. Further doses and runs are listed elsewhere. T/C: endpoint of the treated group in % of that of the vehicle group. Some entries give survivors of the animals treated and no T/C: the source holds a T/C of zero for them, seemingly a mark for toxic or unscored doses. Some doses without a T/C left all or most animals alive at the check, yet need not have been tolerated: the source hardly ever lists a survival T/C far under the control, and the zero likely stands for such cases as well. Survivors were counted at the toxicity check, usually on the fifth day, unless a day is given; later deaths do not show. Schedule codes are those of the source, read here as Q, the interval in days (D) or hours (H), X, the number of doses. Some entries were tested several times; their values stand side by side, smallest first. For survival time, the PubChem record calls one and a half times the control and up active, and a quarter to a half above the control has no call in these data; cut-offs in other NCI protocols can differ. Some T/C values carry the count of animals alive at the toxicity check (mostly the fifth day); where none is given, no animal had died by that day.

Tested on: CD2F1 mice, L1210 leukemia ip, survival T/C
Assay: NCI In Vivo Anticancer Drug Screen. Data for tumor model L1210 Leukemia (intraperitoneal) in CD2F1 (CDF1) mice
Conditions: T/C endpoint: mean survival time, higher T/C = longer survival
How it was run: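 Compound-dosed mice with transplantable tumor versus matched vehicle controls; endpoint ratio T/C reported.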

[1] = dose: 64.0 mg/kg/injection, schedule: Q01DX009 (ip), vehicle: saline

Compound: Nc1nncs1
- T/C (dose: 4.0 mg/kg/injection, schedule: Q03HX024 (ip), vehicle: alkali diluted with saline): 130 % of control
- T/C (dose: 4.0 mg/kg/injection, schedule: Q03HX024 (ip), vehicle: saline): 131 % of control
- T/C (dose: 8.0 mg/kg/injection, schedule: Q03HX008 (ip), vehicle: saline): 128 % of control
- T/C (dose: 8.0 mg/kg/injection, schedule: Q03HX016 (ip), vehicle: saline): 135 % of control
- T/C (dose: 16.0 mg/kg/injection, schedule: Q01DX009 (ip), vehicle: alkali diluted with saline): 127 % of control
- T/C (dose: 16.0 mg/kg/injection, schedule: Q01DX009 (ip), vehicle: other): 131 % of control
- T/C (dose: 16.0 mg/kg/injection, schedule: Q01DX009 (sc), vehicle: alkali diluted with saline): 128 % of control
- T/C (dose: 16.0 mg/kg/injection, schedule: Q03HX008 (ip), vehicle: alkali diluted with saline): 127 % of control
- T/C (dose: 16.0 mg/kg/injection, schedule: Q03HX008 (ip), vehicle: saline): 132 % of control
- T/C (dose: 16.0 mg/kg/injection, schedule: Q03HX016 (ip), vehicle: alkali diluted with saline): 140 % of control
- T/C (dose: 16.0 mg/kg/injection, schedule: Q03HX016 (ip), vehicle: saline): 145 % of control
- T/C (dose: 16.0 mg/kg/injection, schedule: Q03HX024 (ip), vehicle: saline): 127 % of control [9 of 10 alive]
- T/C (dose: 32.0 mg/kg/injection, schedule: Q01DX005 (ip), vehicle: water): 139 % of control
- T/C (dose: 32.0 mg/kg/injection, schedule: Q01DX005 (iv), vehicle: alkali diluted with saline): 128 % of control
- T/C (dose: 32.0 mg/kg/injection, schedule: Q01DX009 (ip), vehicle: alkali diluted with saline): 145 % of control
- T/C (dose: 32.0 mg/kg/injection, schedule: Q01DX009 (ip), vehicle: saline with Tween-80): 143 % of control
- T/C (dose: 32.0 mg/kg/injection, schedule: Q01DX009 (ip), vehicle: saline): 131, 138, 144 % of control
- T/C (dose: 32.0 mg/kg/injection, schedule: Q01DX009 (sc), vehicle: alkali diluted with saline): 139 % of control
- T/C (dose: 32.0 mg/kg/injection, schedule: Q03HX008 (ip), vehicle: alkali diluted with saline): 132 % of control
- T/C (dose: 32.0 mg/kg/injection, schedule: Q03HX016 (ip), vehicle: alkali diluted with saline): 148 % of control [8 of 10 alive]
- T/C (dose: 32.0 mg/kg/injection, schedule: Q03HX016 (ip), vehicle: saline): 129 % of control [9 of 10 alive]
- T/C (dose: 32.0 mg/kg/injection, schedule: Q03HX024 (ip), vehicle: alkali diluted with saline): 138 % of control
- T/C (dose: 64.0 mg/kg/injection, schedule: Q01DX005 (ip), vehicle: water): 132 % of control
- T/C (dose: 64.0 mg/kg/injection, schedule: Q01DX005 (iv), vehicle: alkali diluted with saline): 132 % of control
- T/C (dose: 64.0 mg/kg/injection, schedule: Q01DX009 (ip), vehicle: alkali diluted with saline): 147 % of control
- T/C [1]: 127 % of control
- survivor count [1]: 6 of 6
- survivor count (dose: 64.0 mg/kg/injection, schedule: Q01DX009 (oral), vehicle: alkali diluted with saline): 7 of 10
- T/C (dose: 64.0 mg/kg/injection, schedule: Q01DX009 (sc), vehicle: alkali diluted with saline): 132 % of control
- T/C (dose: 64.0 mg/kg/injection, schedule: Q03HX008 (ip), vehicle: alkali diluted with saline): 132 % of control [8 of 10 alive]
- T/C (dose: 64.0 mg/kg/injection, schedule: Q03HX008 (ip), vehicle: saline): 137 % of control [7 of 10 alive]
- T/C (dose: 64.0 mg/kg/injection, schedule: Q03HX016 (ip), vehicle: alkali diluted with saline): 142 % of control [7 of 10 alive]
- survivor count (dose: 64.0 mg/kg/injection, schedule: Q03HX016 (ip), vehicle: saline): 5 of 10
- survivor count (dose: 64.0 mg/kg/injection, schedule: Q03HX024 (ip), vehicle: saline): 9 of 10
- T/C (dose: 64.0 mg/kg/injection, schedule: Q04DX003 (ip), vehicle: alkali diluted with saline): 141 % of control
- T/C (dose: 65.0 mg/kg/injection, schedule: Q04DX003 (ip), vehicle: water): 129 % of control
- T/C (dose: 108.0 mg/kg/injection, schedule: Q04DX003 (ip), vehicle: water): 137 and 141 % of control
- T/C (dose: 128.0 mg/kg/injection, schedule: Q01DX001 (ip), vehicle: alkali diluted with saline): 125 % of control
- survivor count (dose: 128.0 mg/kg/injection, schedule: Q01DX001 (oral), vehicle: alkali diluted with saline): 5 of 10
- T/C (dose: 128.0 mg/kg/injection, schedule: Q01DX005 (iv), vehicle: alkali diluted with saline): 127 % of control
- T/C (dose: 128.0 mg/kg/injection, schedule: Q01DX009 (ip), vehicle: alkali diluted with saline): 132 % of control [9 of 10 alive]
- survivor count (dose: 128.0 mg/kg/injection, schedule: Q01DX009 (ip), vehicle: other): 9 of 10
- survivor count (dose: 128.0 mg/kg/injection, schedule: Q01DX009 (ip), vehicle: saline with Tween-80): 6 of 6
- survivor count (dose: 128.0 mg/kg/injection, schedule: Q01DX009 (ip), vehicle: saline): 3 of 6 and 6 of 6
- survivor count (dose: 128.0 mg/kg/injection, schedule: Q01DX009 (oral), vehicle: alkali diluted with saline): 6 of 10
- survivor count (dose: 128.0 mg/kg/injection, schedule: Q01DX009 (oral), vehicle: other): 8 of 10
- T/C (dose: 128.0 mg/kg/injection, schedule: Q03HX008 (ip), vehicle: alkali diluted with saline): 146 % of control [9 of 10 alive]
- survivor count (dose: 128.0 mg/kg/injection, schedule: Q03HX008 (ip), vehicle: saline): 6 of 10
- survivor count (dose: 128.0 mg/kg/injection, schedule: Q03HX016 (ip), vehicle: alkali diluted with saline): 3 of 10
- survivor count (dose: 128.0 mg/kg/injection, schedule: Q03HX016 (ip), vehicle: saline): 5 of 10
- T/C (dose: 128.0 mg/kg/injection, schedule: Q04DX003 (ip), vehicle: alkali diluted with saline): 142 % of control
- T/C (dose: 128.0 mg/kg/injection, schedule: Q04DX003 (ip), vehicle: other): 143 % of control
- T/C (dose: 250.0 mg/kg/injection, schedule: Q04DX003 (ip), vehicle: water): 144 % of control
- T/C (dose: 256.0 mg/kg/injection, schedule: Q01DX001 (ip), vehicle: alkali diluted with saline): 132 % of control
- T/C (dose: 256.0 mg/kg/injection, schedule: Q01DX001 (iv), vehicle: alkali diluted with saline): 129 % of control
- T/C (dose: 256.0 mg/kg/injection, schedule: Q01DX001 (oral), vehicle: alkali diluted with saline): 125 % of control [8 of 10 alive]
- T/C (dose: 256.0 mg/kg/injection, schedule: Q01DX001 (sc), vehicle: alkali diluted with saline): 127 % of control
- survivor count (dose: 256.0 mg/kg/injection, schedule: Q01DX009 (ip), vehicle: other): 2 of 10
- survivor count (dose: 256.0 mg/kg/injection, schedule: Q01DX009 (ip), vehicle: saline with Tween-80): 2 of 6 and 5 of 6
- survivor count (dose: 256.0 mg/kg/injection, schedule: Q01DX009 (ip), vehicle: saline): 2 of 6 and 4 of 6
- survivor count (dose: 256.0 mg/kg/injection, schedule: Q01DX009 (oral), vehicle: alkali diluted with saline): 0 of 10
- survivor count (dose: 256.0 mg/kg/injection, schedule: Q01DX009 (oral), vehicle: other): 5 of 10
- survivor count (dose: 256.0 mg/kg/injection, schedule: Q01DX009 (sc), vehicle: alkali diluted with saline): 4 of 10
- T/C (dose: 256.0 mg/kg/injection, schedule: Q08DX002 (ip), vehicle: alkali diluted with saline): 129 % of control
- T/C (dose: 256.0 mg/kg/injection, schedule: Q08DX002 (ip), vehicle: other): 128 % of control
- T/C (dose: 400.0 mg/kg/injection, schedule: Q04DX003 (ip), vehicle: water): 130 % of control
- T/C (dose: 500.0 mg/kg/injection, schedule: Q04DX003 (ip), vehicle: water, evaluated on day 5): 182 and 196 % of control
- T/C (dose: 500.0 mg/kg/injection, schedule: Q04DX003 (ip), vehicle: water, evaluated on day 30): 153 and 160 % of control
- T/C (dose: 512.0 mg/kg/injection, schedule: Q01DX001 (ip), vehicle: alkali diluted with saline): 134 % of control
- T/C (dose: 512.0 mg/kg/injection, schedule: Q01DX001 (ip), vehicle: other): 131 % of control
- T/C (dose: 512.0 mg/kg/injection, schedule: Q01DX001 (iv), vehicle: alkali diluted with saline): 131 % of control
- survivor count (dose: 512.0 mg/kg/injection, schedule: Q01DX001 (oral), vehicle: alkali diluted with saline): 4 of 10
- T/C (dose: 512.0 mg/kg/injection, schedule: Q01DX001 (sc), vehicle: alkali diluted with saline): 128 % of control
- survivor count (dose: 512.0 mg/kg/injection, schedule: Q01DX009 (oral), vehicle: alkali diluted with saline): 0 of 10
- T/C (dose: 512.0 mg/kg/injection, schedule: Q08DX002 (ip), vehicle: other): 134 % of control
- T/C (dose: 1024.0 mg/kg/injection, schedule: Q01DX001 (ip), vehicle: alkali diluted with saline): 134 % of control
- T/C (dose: 1024.0 mg/kg/injection, schedule: Q01DX001 (sc), vehicle: alkali diluted with saline): 133 % of control
- survivor count (dose: 1024.0 mg/kg/injection, schedule: Q01DX009 (oral), vehicle: alkali diluted with saline): 0 of 10
- T/C (dose: 1024.0 mg/kg/injection, schedule: Q08DX002 (ip), vehicle: other): 129 % of control
